# Assay results as given in patent publication US5939526A, “Isolated RAGE-1 derived peptides which complex with HLA-B7 molecules and uses thereof” (Ludwig Institute for Cancer Research, priority 1995, dated 1999).
# Not every detail of the peptide structures is certain; ends, links or a residue may be inferred. Ends that are not written are not given here.
# Test system: HLA-B7+ LB23-EBV B cells
# Assay: Chromium-51 release dose response assay, peptide-pulsed target cells lysed by CTL 263/17
# Type: cell-based, human
# Details: peptide 30 minutes at 37° C., effector:target ratio 10:1, 51Cr release after 4 hours (FIG. 9)
sequence,measurement,value
"SPSSNRIRNT [SEQ.ID.NO.26, SPSSNRIRNT]",peptide concentration inducing half maximal lysis of LB23-EBV cells,30 ng/mL
